According to PubChem BioAssay AID504467 (National Center for Advancing Translational Sciences (NCATS), 2011):
Hit rate of the full screen: of about 330,000 compounds, about 7,700 (2.3%) were called active. The shares of active, inactive and inconclusive entries below differ from those in the screen. Calls come from the whole dose curve; as a rule, active = well fitted inhibition curve with a large enough effect; inconclusive = small, poorly fitted or top-dose-only effect, or effect the other way; inactive = flat fitted curve, though single readings scatter. A potency beside an inconclusive call is a rough fit, not a confirmed value.

test: qHTS screen for small molecules that inhibit ELG1-dependent DNA repair in human embryonic kidney (HEK293T) cells expressing luciferase-tagged ELG1; details: HEK293T ELG1-luciferase reporter, luminescence, 16 h, DNA damage induced by 5-fluorouridine; series mostly up to 46.1 µM; note: nearly all actives have a fitted effect of over 55% in size
Outline: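 Overnight (16 hr) co-exposure of 2,000 cells/well to 5-fluorouridine and compound at 37 °C preceded detection. Luciferase was quantified via ONE-Glo luminescence; loss of signal denotes inhibition.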
Potency is the fitted concentration of half-maximal effect.

For `CCc1cc(C(=O)N2CCCC(CNC(=O)c3ccc(-c4ccccc4)cc3)C2)no1` (centres undefined), which Potency is on record?
Its Potency is inconclusive: 16.4 µM [inhibitor, single point].

Which Potency does the source give for `CS(=O)(=O)N1N=C(c2ccccc2)CC1c1ccc2c(c1)OCO2` (centres undefined) here?
The Potency was inconclusive: 10.3 µM [activator, partial curve, poor fit].

Which Potency does the source give for `O=C(CSc1ncccn1)N1CCN(C(c2ccccc2)c2ccccc2)CC1` here?
Its Potency is inconclusive: 29.1 µM [inhibitor, partial curve, poor fit].

With `Cc1ccccc1-n1c(SCC(=O)N/N=C/c2sccc2C)nc2ccccc2c1=O` as the molecule, how does the Potency read?
The Potency was inconclusive: 29.1 µM [inhibitor, single point].

For `CCOC(=O)N/N=C/c1cccc(Cl)c1Cl`, which Potency is on record?
The Potency was inconclusive: 14.6 µM [activator, partial curve].

For `CC(=O)Nc1ccc(NC(=O)c2sc3nc4n(c(=O)c3c2C)CCCCC4)cc1`, which Potency is on record?
The Potency was inconclusive: 18.3 µM [inhibitor, single point].

Which Potency does the source give for `O=c1c2ccccc2nc(SCc2nnc(-c3ccccc3Br)o2)n1-c1ccccc1` here?
The Potency was inconclusive: 18.4 µM [inhibitor, single point].

Which Potency does the source give for `COc1cc([N+](=O)[O-])cc(/C=C2/SC(=S)N(Cc3ccccc3)C2=O)c1O` here?
Its Potency is inconclusive: 14.6 µM [inhibitor, partial curve].

With `CCOc1ccc(-n2cnc3scc(-c4ccc(OC)c(OC)c4)c3c2=O)cc1` as the molecule, how does the Potency read?
The Potency was inconclusive: 18.3 µM [inhibitor, single point].

Which Potency does the source give for `Cc1ccc(S(=O)(=O)/C(C#N)=C/c2c(N3CC(C)OC(C)C3)nc3ccccn3c2=O)cc1` (centres undefined) here?
The Potency was “inactive”.

With `O=C(N/N=C/c1ccncc1)c1ccc(COc2cccc3cccnc23)cc1` as the molecule, how does the Potency read?
Its Potency is inconclusive: 29.1 µM [inhibitor, single point].

For `N#Cc1cc2cc3c(cc2nc1N1CCOCC1)OCO3`, which Potency is on record?
The Potency was inconclusive: 11.6 µM [inhibitor, partial curve].

With `CN(C(=O)c1ccc(NC(=O)Cc2cccc(NC(=O)C3CCCN(C(=O)C4CCC4)C3)c2)cc1)C1CCCC1` (centres undefined) as the molecule, how does the Potency read?
Its Potency is inconclusive: 29.1 µM [inhibitor, single point].

For `Cc1cccn2c(=O)c(/C=C(\C#N)C(=O)NCc3ccco3)c(N3CCCC(C)C3)nc12` (centres undefined), which Potency is on record?
Its Potency is inconclusive: 23.1 µM [inhibitor, single point].

With `COc1ccccc1NC(=O)CN1CCN(CC(=O)Nc2ccc(OCc3ccccc3)cc2)CC1` as the molecule, how does the Potency read?
The Potency was inconclusive: 23.1 µM [inhibitor, single point].

Which Potency does the source give for `COc1ccc(-n2cnc3sc(-c4ccccc4)cc3c2=O)cc1` here?
The Potency was inconclusive: 2.59 µM [activator, full curve].

Which Potency does the source give for `O=C(Nc1ccc(NC(=O)c2ccco2)nc1)c1cccnc1` here?
Its Potency is inconclusive: 2.59 µM [activator, full curve].

For `CCN(CC)C(=O)COc1cc(C)cc2oc(=O)cc(-c3ccccc3)c12`, which Potency is on record?
Its Potency is inconclusive: 0.562 µM [inhibitor, full curve, poor fit].

With `CC(C)c1nnc(NC(=O)c2sc3ccccc3c2Cl)s1` as the molecule, how does the Potency read?
Its Potency is inconclusive: 11.2 µM [activator, partial curve].

For `Cc1cc(OCC(=O)N2CCC(C(=O)O)CC2)c2c(C)c(C)c(=O)oc2c1`, which Potency is on record?
Its Potency is inconclusive: 0.164 µM [activator, full curve, poor fit].

Which Potency does the source give for `COCCCn1c(=O)c2sccc2n(Cc2ccc(C)cc2)c1=O` here?
The Potency was inconclusive: 14.6 µM [inhibitor, single point].

Which Potency does the source give for `N/C(=N\OC(=O)Cc1ccccc1)c1ccccc1Cl` here?
Its Potency is inconclusive: 29.1 µM [activator, single point].

Which Potency does the source give for `CC(=O)Nc1sc(N/N=C/c2ccc(O)cc2)nc1-c1ccc(C)cc1` here?
The Potency was inconclusive: 3.66 µM [inhibitor, single point].

For `Cc1cc(C)cc(-n2ncc3c2CCCC3NC(=O)C2(C(N)=O)CC2)c1` (centres undefined), which Potency is on record?
The Potency was “inactive”.

For `CC(=O)c1c(C)[nH]c(C(=O)OCC(=O)c2ccc3c(c2)NC(=O)CO3)c1C`, which Potency is on record?
Its Potency is “inactive”.

For `O=C(Nc1ccc(-c2nc3ccc(NC(=O)c4cccs4)cc3[nH]2)cc1)c1cccs1`, which Potency is on record?
Its Potency is inconclusive: 20.6 µM [activator, single point].

For `O=C(CSc1nc2c(c(=O)n1-c1ccccc1)SCC2)NCC1CCCO1` (centres undefined), which Potency is on record?
Its Potency is “inactive”.

Which Potency does the source give for `COc1ccccc1N(C)S(=O)(=O)c1ccc(C(=O)OC(C)C(=O)NCc2ccc3c(c2)OCO3)cc1` (centres undefined) here?
The Potency was inconclusive: 23.1 µM [inhibitor, single point].

For `NS(=O)(=O)c1ccc(CCNc2ncnc3sccc23)cc1`, which Potency is on record?
The Potency was inconclusive: 2.31 µM [inhibitor, full curve].

With `COc1ccc(OC)c(NC(=O)c2cc(S(=O)(=O)NCc3ccco3)ccc2F)c1` as the molecule, how does the Potency read?
The Potency was inconclusive: 32.6 µM [inhibitor, single point].

With `Cc1sc(NC(=O)C2CSC3(C)CCC(=O)N23)nc1-c1ccccc1` (centres undefined) as the molecule, how does the Potency read?
The Potency was inconclusive: 20.6 µM [inhibitor, single point].

For `Clc1ccc(CCNc2ncnc3nc[nH]c23)cc1`, which Potency is on record?
The Potency was inconclusive: 13 µM [inhibitor, partial curve].

For `CCn1c(C)cc(C(=O)CN2C(=O)c3ccccc3S2(=O)=O)c1C`, which Potency is on record?
The Potency was inconclusive: 0.517 µM [activator, full curve].

Which Potency does the source give for `N/C(=N\OC(=O)Cc1ccccc1)c1cccnc1` here?
The Potency was “inactive”.

For `CCOC(=O)c1ccc(N2C=C(C(=O)OC)C(c3ccc(OC)c(O)c3)C(C(=O)OC)=C2)cc1`, which Potency is on record?
Its Potency is inconclusive: 29.1 µM [inhibitor, single point].

Which Potency does the source give for `CN(CC(=O)O)S(=O)(=O)c1ccc2c(c1)n(C)c(=O)c(=O)n2C` here?
Its Potency is “inactive”.

With `O=C(NCC(c1ccc(F)cc1)N1CCOCC1)c1ccc(OCc2ccccc2)cc1` (centres undefined) as the molecule, how does the Potency read?
Its Potency is “inactive”.

With `O=C(CSc1ccc2ccccc2c1)Nc1nc2ccccc2[nH]1` as the molecule, how does the Potency read?
The Potency was “inactive”.

For `COc1cccc2[nH]c3c(=O)n(CCCN4CCOCC4)cnc3c12`, which Potency is on record?
The Potency was inconclusive: 20.6 µM [activator, partial curve, poor fit].

Which Potency does the source give for `COc1ccc(N2CCN(C(=O)CN(Cc3ccccc3)S(C)(=O)=O)CC2)cc1` here?
The Potency was “inactive”.

Which Potency does the source give for `CCOc1cc(/C=N/NC(=O)C(=O)NCc2cccnc2)ccc1O` here?
The Potency was “inactive”.

For `COc1ccc2c(c1)c(C(=O)CN1CCN(C(=O)c3ccco3)CC1)c(C)n2C`, which Potency is on record?
The Potency was “inactive”.

Which Potency does the source give for `S=C(NCCC(c1ccccc1)c1ccccc1)Nc1ccc(Cl)cc1` here?
The Potency was “inactive”.

With `CCc1cc(C(=O)N(CC)CC(=O)Nc2ccc(OC)cc2)sc1C` as the molecule, how does the Potency read?
The Potency was “inactive”.

Which Potency does the source give for `CCOC(=O)C1CCN(CC(=O)Nc2c(C(=O)OC)[nH]c3cccc(C)c23)CC1` here?
Its Potency is “inactive”.

With `Cc1ccc(C2N(c3nccs3)C(=O)C3CCCN32)cc1` (centres undefined) as the molecule, how does the Potency read?
The Potency was “inactive”.

With `CS(=O)(=O)c1cnc2c(-c3ccc(F)cc3)cnn2c1N` as the molecule, how does the Potency read?
Its Potency is inconclusive: 25.9 µM [activator, single point].

With `CC(C)(C)NC(=S)N/N=C\c1ccc(-c2ccc([N+](=O)[O-])cc2)o1` as the molecule, how does the Potency read?
Its Potency is active: 20.6 µM.

For `CCOC(=O)c1cnc(-n2nc(C)cc2C)nc1NCCc1ccccc1`, which Potency is on record?
Its Potency is inconclusive: 6.31 µM [inhibitor, partial curve, poor fit].

For `O=C(Nc1cccc(S(=O)(=O)N2CCCC2)c1)c1cccc(OC(F)F)c1`, which Potency is on record?
Its Potency is inconclusive: 29.1 µM [inhibitor, single point].

For `CC1CCN(C(=O)COc2cccc3c2CCN(C)C3=O)CC1`, which Potency is on record?
Its Potency is “inactive”.

For `Cc1cn(C2CC(OC(=O)C(C)C)C(CO)O2)c(=O)[nH]c1=O` (centres undefined), which Potency is on record?
The Potency was inconclusive: 35.5 µM [activator, single point].

For `COCCCNC(=O)/C(C#N)=c1\s/c(=C\c2ccccc2OC(F)F)c(=O)n1CCCOC`, which Potency is on record?
Its Potency is inconclusive: 7.31 µM [inhibitor, partial curve, poor fit].

Which Potency does the source give for `CCOC(=O)c1ccc(NC(=O)NCCc2cnc[nH]2)cc1` here?
Its Potency is “inactive”.

Which Potency does the source give for `CC1CCN(S(=O)(=O)c2ccc3[nH]c(=O)ccc3c2)CC1` here?
Its Potency is inconclusive: 13 µM [activator, partial curve].

For `CCn1nc(NC(=O)c2cccs2)c2cc3ccccc3nc21`, which Potency is on record?
Its Potency is inconclusive: 23.1 µM [inhibitor, single point].

For `Cc1ccc(NC(=O)OCc2cc(-c3ccccc3)on2)cc1`, which Potency is on record?
Its Potency is inconclusive: 23.1 µM [activator, single point].

Which Potency does the source give for `CC#CC#Cc1cccc(=O)o1` here?
Its Potency is inconclusive: 29.1 µM [inhibitor, single point].

Which Potency does the source give for `O=C1c2ccccc2C(=O)c2[nH]c(=O)[nH]c21` here?
The Potency was active: 7.3 µM.

Which Potency does the source give for `COc1ccc(C(NC(=O)C2CCCCC2)c2c(O)ccc3ccccc23)cc1` (centres undefined) here?
Its Potency is “inactive”.

With `COc1cccc(C2C(C(C)=O)=C(C)Nc3ncnn32)c1` (centres undefined) as the molecule, how does the Potency read?
Its Potency is inconclusive: 32.6 µM [activator, partial curve, poor fit].

Which Potency does the source give for `O=C(Nc1ccc2c(c1)OCO2)c1c(Cl)nc2sccn12` here?
Its Potency is inconclusive: 7.31 µM [activator, partial curve].

For `CCC(=Nc1ccccc1OC)C1=C(O)CC(c2ccccc2)CC1=O` (centres undefined), which Potency is on record?
The Potency was “inactive”.

For `CC1CN(CC(=O)NN=C(c2ccccc2)c2ccccc2)CC(C)O1` (centres undefined), which Potency is on record?
The Potency was “inactive”.

With `CCCNC(=S)N1CCC(NC(=O)C23CC4CC(CC(C4)C2)C3)CC1` as the molecule, how does the Potency read?
The Potency was inconclusive: 20.6 µM [inhibitor, single point].

With `COc1ccc(N2CCN(CC(=O)N3c4ccccc4CC3C)CC2)cc1` (centres undefined) as the molecule, how does the Potency read?
Its Potency is inconclusive: 29.1 µM [inhibitor, single point].

Which Potency does the source give for `O=C(O)c1ccc(NC(=O)c2ccc(COc3ccccc3)o2)cc1` here?
The Potency was “inactive”.

For `COc1ccc(S(=O)(=O)NCCSCc2ccco2)cc1OC`, which Potency is on record?
The Potency was inconclusive: 20.6 µM [inhibitor, single point].

With `O=C(c1ccc(-n2cncn2)c([N+](=O)[O-])c1)N1CCN(S(=O)(=O)c2cccc(F)c2)CC1` as the molecule, how does the Potency read?
Its Potency is inconclusive: 7.3 µM [activator, partial curve, poor fit].
